Measured values taken from patent US4933347A, “Diamidines and bis(imidazolines) for the treatment of and prophylaxis against pneumocystis carinii pneumonia” (University of North Carolina at Chapel Hill, priority 1988, dated 1990).
Where “and” joins values, the source holds several entries; their conditions need not be identical. Equal values may be shown once. For some assays here: At least one read-out could not be matched to a standard name with certainty. For some assays here: For at least one compound, name, drawing or mass did not settle the structure.

What was measured:
[1] = system: Pneumocystis carinii; assay: Treatment of Pneumocystis carinii pneumonia in Sprague-Dawley rats (extent of disease by histologic score); type: in vivo, male Sprague-Dawley rats; conditions: 10 mg/kg i.v. daily, 14 days; for Extent of Disease by Histologic Score: number of animals with score 0.5: 0.5 = <10 cysts found per 2 sections; for Extent of Disease by Histologic Score: number of animals with score 1: 1 = scattered cysts, <5% of lung involved
Description: Induction and Treatment Of Pneumocystis Carinii in Sprague-Dawley Rats
Male Sprague-Dawley rats, barrier raised, non-certified virus free, weighing 150-200g were obtained from Hilltop Laboratories and housed individually. Animals were begun on a low (8%) protein diet (ICN Biomedicals, Cincinnati, OH) and drinking water containing tetracycline (0.5 mg/ml) and dexamethasone (1.0 μg/ml) immediately upon arrival. This treatment was given for the next 8 weeks, monitoring fluid intake daily and weighing animals weekly. Dilutions of the drinking solution were made when animals consumed too much fluid so as to prevent cortisone poisoning. At the beginning of the sixth week, animals were divided into groups of 8 animals each and the test compounds were administered daily by i.v. injection at a dose of 10 mg/kg, unless otherwise noted, for the next 14 days.
Animals were sacrificed at the end of the eighth week by chloroform inhalation and the left lung was removed aseptically and placed in sterile Hank's balanced salts solution without calcium or magnesium (HBSS-) for the ground tissue procedure. The right lung was inflated in situ with 10% […] and removed for histologic examination GMS staining. […]

[2] = system: Pneumocystis carinii; conditions: in vivo; cited from earlier work

SMILES	Extent of Disease by Histologic Score: number of animals with score 1 [1]	Known effectiveness against Pneumocystis carinii pneumonia [2]	further results
N=C(N)c1ccc(OCCCCOc2ccc(C(=N)N)cc2)cc1 [Example 9, butamidine]	0 animals	–	Extent of Disease by Histologic Score: number of animals with score 0.5 [1]: 8 animals; Extent of Disease by Histologic Score: number of animals with score 0.5 ([1]; listed as Butamidine): 10 animals; Extent of Disease by Histologic Score: number of animals with score 1 ([1]; listed as Butamidine): 2 animals
N=C(N)c1cccc(OCCCCCOc2cccc(C(=N)N)c2)c1 [Example 28]	2 animals and 1 animals	–	Extent of Disease by Histologic Score: number of animals with score 2 ([1]; 2 = scattered cysts, 5-10% lung involved or small foci of infection): 2 animals and 4 animals
N=C(N)c1ccc(/C=C/c2ccc(C(=N)N)cc2O)cc1 [hydroxystilbamidine]	–	some effectiveness against PCP	–
N=C(N)c1ccc(/C=C/c2ccc(C(=N)N)cc2)cc1 [stilbamidine]	–	some effectiveness against PCP	–
